According to US10035989B2, “Method for producing polyunsaturated fatty acids in transgenic plants” (BASF Plant Science GmbH, priority 2004, dated 2018):

B1: TL16y2: Δ5-elongase from Thraustochytrium ssp., SEQ ID NO: 83 (protein, listed as Thraustochytrium sp.)
chain: MDVVEQQWRRFVDAVDNGIVEFMEHEKPNKLNEGKLFTSTEEMMALIVGYLAFVVLGSAFMKAFVDKPFELKFLKLVHNIFLTGLSMYMATECARQAYLGGYKLFGNPMEKGTESHAPGMANIIYIFYVSKFLEFLDTVFMILGKKWKQLSFLHVYHHASISFIWGIIARFAPGGDAYFSTILNSSVHVVLYGYYASTTLGYTFMRPLRPYITTIQLTQFMAMVVQSVYDYYNPCDYPQPLVKLLFWYMLTMLGLFGNFFVQQYLKPKAPKKQKTI
modifications: CDS (1)..(831): Delta-5 elongase
B2: At3g06460: elongase from Arabidopsis thaliana, SEQ ID NO: 135 (protein, listed as Arabidopsis thaliana)
chain: MASVYSTLTYWLVHHPYIANFTWTEGETLGSTVFFVFVVVSLYLSATFLLRYTVDSLPTLGPRILKPITAVHSLILFLLSLTMAVGCTLSLISSSDPKARLFDAVCFPLDVKPKGPLFFWAQVFYLSKILEFVDTLLIILNKSIQRLSFLHVYHHATVVILCYLWLRTRQSMFPVGLVLNSTVHVIMYGYYFLCAIGSRPKWKKLVTNFQMVQFAFGMGLGAAWMLPEHYFGSGCAGIWTVYFNGVFTASLLALFYNFHSKNYEKTTTSPLYKIESFIFIHGERWANKAITLFSKKND
modifications: CDS (1)..(897): Delta-5 elongase

How the values were obtained:
[1] = tested on: TL16y2 Δ5-elongase; assay: Expression of TL16y2 in yeast (feeding experiments, GC); format: cell-based, Thraustochytrium ssp.
Experimental: The yeasts were subsequently plated onto complete uracil dropout minimal medium supplemented with 2% glucose.
The substrate specificity of BioTaurELO1 was determined after expression and feeding of various fatty acids (FIG. 6). […] After the fatty acids had been extracted from the yeasts, they were transmethylated and separated by gas chromatography. The elongation products originating from the two fatty acids which had been fed are identified by arrows.
The functionality and substrate specificity of TL16y2 were determined after expression and feeding of various fatty acids. […] The feeding experiments were carried out in the same manner as described for BioTaurELO1. The substrates which have been fed can be detected in large amounts in all transgenic yeasts. […] This means that the gene TL16y2 has been expressed functionally.

[2] = tested on: At3g06470 elongase; assay: Elongation of EPA by the elongase At3g06470 in yeast; conditions: yeast extracts after feeding of 250 μM EPA; second line of Table 20
[3] = tested on: At3g06460 elongase; assay: Elongation of EPA by the elongase At3g06460 in yeast; conditions: yeast extracts after feeding of 250 μM EPA

Molecule | C20:5 (n-3), % areas in the gas-chromatographic analysis ([1]; fed 50 μm EPA) | C22:5 (n-3), % areas in the gas-chromatographic analysis ([1]; fed 50 μm EPA) | C20:4 (n-6), % areas in the gas-chromatographic analysis ([1]; fed 250 μm ARA) | C20:5 (n-3), % areas in the gas-chromatographic analysis ([1]; fed 250 μm ARA) | C20:5 (n-3), % areas in the gas-chromatographic analysis ([1]; fed 250 μm EPA) | C22:5 (n-3), % areas in the gas-chromatographic analysis ([1]; fed 250 μm EPA) | C18:3 (n-6), % areas in the gas-chromatographic analysis ([1]; fed 250 μm GLA) | C20:3 (n-6), % areas in the gas-chromatographic analysis ([1]; fed 250 μm GLA) | C18:4 (n-3), % areas in the gas-chromatographic analysis ([1]; fed 250 μm SDA) | C20:4 (n-3), % areas in the gas-chromatographic analysis ([1]; fed 250 μm SDA) | C20:5n-3 content [2] | C22:5n-3 content [2] | C20:5n-3 content [3] | C22:5n-3 content [3]
B1 | 2.48% | 1.73% | 15.2% | 3.87% | 25.81% | 2.25% | 3.59% | 10.71% | 7.74% | 29.17% | – | – | – | –
B2 | – | – | – | – | – | – | – | – | – | – | 25.4 | 1.1 | 20.8 | 0.6
